Some results were stated once for a whole list of compounds, not compound by compound.
molecular target: T1, CRF receptor (Macaca mulatta, UniProt Q76LL8); test: CRF receptor binding test; conditions: monkey amygdala membranes; 125I-CRF 0.2 nM; 25° C. for 2 hours; read-out: IC50 (concentration of the test drug at which binding of 125I-CRF is inhibited by 50%)
T1 sequence (Q76LL8 24-415): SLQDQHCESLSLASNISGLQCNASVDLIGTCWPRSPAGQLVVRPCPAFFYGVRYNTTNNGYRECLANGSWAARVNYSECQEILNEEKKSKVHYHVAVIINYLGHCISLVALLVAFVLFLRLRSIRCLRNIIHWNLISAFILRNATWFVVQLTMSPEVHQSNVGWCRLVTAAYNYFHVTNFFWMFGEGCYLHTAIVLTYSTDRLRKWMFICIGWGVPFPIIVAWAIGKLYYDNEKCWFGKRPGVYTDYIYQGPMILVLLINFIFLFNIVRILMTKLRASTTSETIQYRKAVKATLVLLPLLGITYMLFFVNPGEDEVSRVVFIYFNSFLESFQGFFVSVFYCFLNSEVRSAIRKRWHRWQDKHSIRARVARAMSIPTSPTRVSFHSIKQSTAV

IC50, ≤ 50 nM:
Cc1nc(N2CCCC(CCC#N)C2)c2c(C)c(C)n(-c3c(C)cc(Br)cc3C)c2n1 (centres unmarked) [Compound 1-148]
Cc1nc(N2CCC(CO)CC2)c2c(C)cn(-c3c(Br)cc(Cl)cc3Br)c2n1 [Compound 1-195]
Cc1cc(N2CCC(CCO)CC2)c2c(C)cn(-c3ccc(C(C)C)cc3Br)c2n1 [Compound 2-064]
Cc1cc(C)c(-n2c3ccccc3c3c(N4CCC(CO)CC4)nc(C)nc32)c(C)c1 [Compound 1-056]
Cc1nc(N2CCCC(CO)CC2)c2c(C)c(C)n(-c3c(C)cc(Br)cc3C)c2n1 (centres unmarked) [Compound 1-121]
Cc1nc(N2CCCCC2CCCO)c2c(C)cn(-c3c(C)cc(Br)cc3C)c2n1 (centres unmarked) [Compound 1-010]
Cc1cc(N2CCC(C#N)CC2)c2c(C)cn(-c3cc(Br)c(Br)cc3Br)c2n1 [Compound 2-110]
Cc1nc(N2CCCCC2CCO)c2c(C)c(C)n(-c3c(C)cc(Br)cc3C)c2n1 (centres unmarked) [Compound 1-004]
Cc1cc(N2CCCC(CCO)C2)c2c(C)c(C)n(-c3ccc(Cl)cc3Cl)c2n1 (centres unmarked) [Compound 2-002]
Cc1cc(N2CCC(CCCO)CC2)c2c(C)cn(-c3c(Br)cc(Cl)cc3Br)c2n1 [Compound 2-080]
CSc1cc(Br)cc(Br)c1-n1cc(C)c2c(N3CCCC(CO)C3)nc(C)nc21 (centres unmarked) [Compound 1-014]
Cc1nc(N2CCC(CCO)C2)c2c(C)cn(-c3c(C)cc(Br)cc3C)c2n1 (centres unmarked) [Compound 1-120]
Cc1nc(N2CCC(CCCO)CC2)c2c(C)c(C)n(-c3c(C)cc(Cl)cc3C)c2n1 [Compound 1-251]
Cc1cc(N2CCC(CCO)CC2)c2c(C)c(C)n(-c3c(Cl)cc(Br)cc3Cl)c2n1 [Compound 2-056]
Cc1cc(N2CCC(CCCO)CC2)c2c(C)c(C)n(-c3c(Br)cc(C(C)C)cc3Br)c2n1 [Compound 2-071]
Cc1cc(N2CCC(C#N)CC2)c2c(C)cn(-c3c(Cl)cc(Br)cc3Cl)c2n1 [Compound 2-098]
Cc1cc(N2CCC(C#N)CC2)c2c(C)c(C)n(-c3c(Br)cc(Br)cc3Br)c2n1 [Compound 2-095]
Cc1nc(N2CCC(CC#N)CC2)c2c(C)c(C)n(-c3c(Br)cc(C(F)(F)F)cc3Br)c2n1 [Compound 1-153]
Cc1nc(N2CCC(CC#N)CC2)c2c(C)cn(-c3c(Br)cc(C(C)C)cc3Br)c2n1 [Compound 1-163]
Cc1nc(N2CCC(CC#N)C2)c2c(C)cn(-c3c(C)cc(Br)cc3C)c2n1 (centres unmarked) [Compound 1-237]
Cc1nc(N2CCC(CC#N)CC2)c2c(C)cn(-c3c(C)cc(Cl)cc3C)c2n1 [Compound 1-167]
Cc1nc(N2CCCCC2CC#N)c2c(C)c(C)n(-c3c(C)cc(Br)cc3C)c2n1 (centres unmarked) [Compound 1-123]
Cc1nc(N2CCC(CO)CC2)c2c(C)c(C)n(-c3c(Br)cc(Br)cc3Br)c2n1 [Compound 1-059]
Cc1nc(N2CC[C@H](CO)[C@@H](C)C2)c2c(C)c(C)n(-c3c(C)cc(Br)cc3C)c2n1 [Compound 1-285]
Cc1cc(N2CCC(CO)CC2)c2c(C)cn(-c3c(Cl)cc(Cl)cc3Cl)c2n1 [Compound 2-040]
Cc1nc(N2CCCCC2CCO)c2c(C)cn(-c3c(Br)cc(Br)cc3Br)c2n1 (centres unmarked) [Compound 1-008]
Cc1nc(N2CCC(CO)CC2)c2c(C)cn(-c3ccc(C(C)C)cc3Br)c2n1 [Compound 1-184]
Cc1cc(N2CCC(CCO)CC2)c2c(C)cn(-c3c(C)cc(Br)cc3C)c2n1 [Compound 2-007]
COCC(=O)OCC1CCN(c2nc(C)nc3c2c(C)cn3-c2c(C)cc(Br)cc2C)CC1 [Compound 3-006]
COc1cc(Br)cc(Br)c1-n1cc(C)c2c(N3CCCC(CO)C3)nc(C)nc21 (centres unmarked) [Compound 1-013]
Cc1nc(N2CCCCC2CCO)c2c(C)cn(-c3c(C)cc(Br)cc3C)c2n1 (centres unmarked) [Compound 1-005]
Cc1nc(N2CCC(CO)CC2)c2c(C)c(C)n(-c3c(Cl)cc(Br)cc3Cl)c2n1 [Compound 1-061]
Cc1cc(N2CCC(CCCO)CC2)c2c(C)cn(-c3cc(Br)c(Br)cc3Br)c2n1 [Compound 2-088]
CSc1cc(C(C)C)ccc1-n1cc(C)c2c(N3CCC(CO)CC3)cc(C)nc21 [Compound 2-046]
CSc1cc(C(C)C)ccc1-n1cc(C)c2c(N3CCC(CC#N)CC3)cc(C)nc21 [Compound 2-125]
Cc1cc(C)c(-n2c(C)c(C)c3c(N4CCC(CC#N)CC4)nc(C)nc32)c(C)c1 [Compound 1-152]
Cc1cc(N2CCC(CO)CC2)c2c(C)cn(-c3ccc(C(C)C)cc3Br)c2n1 [Compound 2-045]
Cc1nc(N2CCC(C#N)CC2)c2c(C)c(C)n(-c3c(C)cc(Cl)cc3C)c2n1 [Compound 1-257]
Cc1cc(C)c(-n2c(C)c(C)c3c(N4CCC(CO)CC4)nc(C)nc32)c(C)c1 [Compound 1-050]
Cc1cc(N2CCC(C#N)CC2)c2c(C)c(C)n(-c3c(Br)cc(Cl)cc3Br)c2n1 [Compound 2-101]
Cc1cc(N2CCC(C#N)CC2)c2c(C)c(C)n(-c3c(C)cc(Br)cc3C)c2n1 [Compound 2-027]
Cc1cc(N2CCC(CO)CC2)c2c(C)c(C)n(-c3c(Cl)cc(Cl)cc3Cl)c2n1 [Compound 2-039]
Cc1cc(N2CCC(CO)CC2)c2c(C)cn(-c3c(Br)cc(Cl)cc3Br)c2n1 [Compound 2-042]
Cc1nc(N2CCC(CO)CC2)c2c(C)cn(-c3c(Cl)cc(Cl)cc3Cl)c2n1 [Compound 1-243]
Cc1nc(N2CCC(C(C#N)C#N)CC2)c2c(C)cn(-c3c(C)cc(Br)cc3C)c2n1 [Compound 1-337]
Cc1cc(N2CCC(CC#N)CC2)c2c(C)cn(-c3c(C)cc(Cl)cc3C)c2n1 [Compound 2-032]
Cc1nc(N2CCCC(CCO)C2)c2c(C)cn(-c3c(Br)cc(Br)cc3Br)c2n1 (centres unmarked) [Compound 1-046]
COc1cc(C)c(-n2cc(C)c3c(N4CCC(CO)CC4)cc(C)nc32)c(C)c1 [Compound 2-044]
Cc1cc(N2CCC(CCO)CC2)c2c(C)cn(-c3c(Cl)cc(Br)cc3Cl)c2n1 [Compound 2-057]
Cc1cc(N2CCC(CC#N)CC2)c2c(C)c(C)n(-c3c(C)cc(Br)cc3C)c2n1 [Compound 2-030]
CCc1cc(Br)cc(CC)c1-n1cc(C)c2c(N3CCC(CC#N)CC3)nc(C)nc21 [Compound 1-157]
Cc1cc(N2CCCC(CCO)C2)c2c(C)cn(-c3c(C)cc(Br)cc3C)c2n1 (centres unmarked) [Compound 2-003]
Cc1nc(N2CCCCC2CCO)c2c(C)c(C)n(-c3c(Br)cc(C(F)(F)F)cc3Br)c2n1 (centres unmarked) [Compound 1-003]
COCC(=O)OCC1CCN(c2cc(C)nc3c2c(C)cn3-c2c(C)cc(Br)cc2C)CC1 [Compound 3-007]
Cc1cc(N2CCC(CC#N)CC2)c2c(C)c(C)n(-c3c(Br)cc(Br)cc3Br)c2n1 [Compound 2-114]
Cc1nc(N2CCC(CC#N)CC2)c2c(C)c(C)n(-c3c(C)cc(Cl)cc3C)c2n1 [Compound 1-166]
Cc1cc(N2CCC(C#N)CC2)c2c(C)c(C)n(-c3c(Cl)cc(Br)cc3Cl)c2n1 [Compound 2-097]
CSc1cc(C(C)C)ccc1-n1cc(C)c2c(N3CCC(CCCO)CC3)cc(C)nc21 [Compound 2-084]
Cc1cc(Cl)cc(C)c1-n1cc(C)c2c(N3CCC(CCO)CC3)c(Br)c(C)nc21 [Compound 2-070]
Cc1nc(N2CC[C@H](CO)[C@H](C)C2)c2c(C)cn(-c3c(C)cc(Br)cc3C)c2n1 [Compound 1-288]
Cc1cc(C)c(-n2cc(C)c3c(N4CCC(CCCO)CC4)nc(C)nc32)c(C)c1 [Compound 1-088]
Cc1nc(N2CCCC(CO)C2)c2c(C)c(C)n(-c3c(C)cc(Br)cc3C)c2n1 (centres unmarked) [Compound 1-016]
COc1cc(C)c(-n2c(C)c(C)c3c(N4CCC(CCO)CC4)cc(C)nc32)c(C)c1 [Compound 2-062]
Cc1cc(N2CCC(CC#N)CC2)c2c(C)cn(-c3c(Br)cc(C(C)C)cc3Br)c2n1 [Compound 2-113]
Cc1nc(N2CCCC(C#N)C2)c2c(C)c(C)n(-c3ccc(C(F)(F)F)cc3Br)c2n1 (single isomer, unassigned) [Compound 1-135, 1-[7-(2-bromo-4-trifluoromethylphenyl)-2,5,6-trimethyl-7H-pyrrolo[2,3-d]pyrimidine-4-yl]piperidine-3-carbonitrile]
Cc1cc(N2CCC(CCCO)CC2)c2c(C)cn(-c3c(C)cc(Cl)cc3C)c2n1 [Compound 2-025]
Cc1nc(N2CC[C@H](CO)[C@H](C)C2)c2c(C)c(C)n(-c3c(C)cc(Br)cc3C)c2n1 [Compound 1-287]
CSc1cc(C(C)C)ccc1-n1cc(C)c2c(N3CCC(CO)CC3)nc(C)nc21 [Compound 1-183]
Cc1cc(N2CCC(C#N)CC2)c2c(C)cn(-c3ccc(C(C)C)cc3Br)c2n1 [Compound 2-105]
Cc1nc(N2CC(C#N)C2)c2c(C)c(C)n(-c3c(C)cc(Br)cc3C)c2n1 [Compound 1-264]
Cc1nc(N2CCC(CC#N)CC2)c2c(C)c(C)n(-c3c(Cl)cc(Br)cc3Cl)c2n1 [Compound 1-160]

From patent publication US7932259B2, “Pyrrolo[2,3-d]pyrimidine derivatives substituted with a cyclic amino group” (Taisho Pharmaceutical Co., Ltd., priority 2002, dated 2011)
